Test results as given in PubChem BioAssay AID1347423 (Functional Genomics Laboratory (NCATS/FGL), 2020).
Screen size: about 52,000 sequences; about 210 (0.4%) were called active.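 The calls were made as follows: active = gene whose silencing raises cell survival under the drug, median off-target-corrected z-score across its silencing RNAs 2 or more; inactive = the rest.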 Some of the results follow.

Assay: Resistance to Poly (ADP-Ribose) Polymerase inhibitor: Gene Identification via Genome-wide siRNA Screen
Details: mouse BRCA2 R2336H ES cells, olaparib, CellTiter-Glo viability; hits give high values
How it was run: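 Mouse BRCA2 R2336H ES cells were reverse-transfected with siRNA (20 nM final), treated at 48 h with 500 nM olaparib, and read by CellTiter-Glo after 72 h. Scores: MAD-based z per siRNA, median per gene, seed off-target correction.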
In the case of CCCUAAUCUGGUGAACGAUTT against Mfap5, the z-score is reported as inactive: -0.108. For GGUUCACGAGCUAAGCUGUTT against Sec23b, the z-score was inactive: -0.377. With CCACUACUAGAAUCCUAAATT against Sdc3 the z-score was inactive: 1.74. With GCACUGGAAUCAAACCAUCTT against Ppp2r5b the z-score was active: 2.45. For GUCUUCUUACCCUACUGUGTT against Olfr1178, the z-score was inactive: -1.81. In the case of GCAGAUCUCUUACGUCAUCTT against Adam9, the z-score is reported as inactive: 0.749. With GCAACCACUGUGGUGAUUGTT against Lincr the z-score was inactive: 0.778. For GGCUUUUUCUCACCAGCACTT against Sin3a, the z-score was inactive: -1.8. For GGUGGUAAAGACGAUUGGCTT against Vil2, the z-score was inactive: -1.52. In the case of CCAUCCUGGGACUUAUCUGTT against Olfr447, the z-score is reported as inactive: 0.315. In the case of GGAAGCCAUUGGGUUAAGCTT against Gpr141, the z-score is reported as inactive: 0.962. With GGACUCUACUAGGAAUAAATT against Col16a1 the z-score was inactive: 1.31. With GGAAUUCAGCAGUCAACUGTT against Krt1-15 the z-score was inactive: 1.73. For GCUGACCUAUUCUGAUCCATT against Chchd4, the z-score was inactive: -0.557. With GGUACAGAUUCUUGUGGACTT against Bace2 the z-score was inactive: 0.318. With CGCGGGAUGAAGGAUAUAATT against LOC432589 the z-score was inactive: -2.23. For GGUGGAGAUCAAACCAGAGTT against Rps15, the z-score was inactive: -3.39. With GCAACUUGUCAGAUGUUUCTT against Trpm7 the z-score was inactive: -0.603. In the case of GGACUUUUCAUUUGAAGCATT against Nola1, the z-score is reported as inactive: -2.5. With “ACUUCUGGCUCCGUUAAGGTT against 2410039E07Rik” the z-score was inactive: 0.125. In the case of GGAGCACUUAGAUGACUAUTT against Skil, the z-score is reported as inactive: -0.961. For “GGAAAAACCAAAUUUACCATT against 1810003N24Rik”, the z-score was inactive: 0.0612. In the case of GCCAUUAUUGGAGCUGGCATT against Olfr105, the z-score is reported as inactive: -1.38. For GGUGAGAAUGUGCUUCAAUTT against Egr2, the z-score was inactive: -0.181. With GGACAUGUACACCUUUGAUTT against BC027073 the z-score was inactive: -0.905. For CCUUCAUUAACAGACUACUTT against Miz1, the z-score was inactive: -0.949. In the case of GGACUUCCAGAUCCAACCUTT against Robo4, the z-score is reported as inactive: -0.311. For “GGUGUUUGAAAAGAAGAACTT against 1110063G11Rik”, the z-score was inactive: -0.602. With “GCGGUUAACAGGCAUGCGATT against 4921531G14Rik” the z-score was inactive: 0.564. For GGGCUCUUUUUCUAGGAAATT against AW121567, the z-score was inactive: 1.75. For “GGGAGAGGCCUUUUGAAUGTT against 2610029D06Rik”, the z-score was inactive: -1.2. In the case of GGAAGAUCUGUACUACGGGTT against Bsnd, the z-score is reported as inactive: -0.981. In the case of “GGGUUUCCUACAGAGUACCTT against 9430069J07Rik”, the z-score is reported as inactive: 1.42. In the case of GGUGGAUGUCUUCUUCAACTT against Gata2, the z-score is reported as inactive: -0.486. In the case of “GGAGGAAAUCAGAGAGAGGTT against D330024H06Rik”, the z-score is reported as inactive: -1.56. With GCAAGUGCUCCAAUCUUGCTT against Ccl5 the z-score was inactive: 1.34. For CUCUAUCUCAUUGCAGUCCTT against Olfr671, the z-score was inactive: 0.574. For CGUGUUUCAGGUUUCUAUUTT against MGC59240, the z-score was inactive: -0.646. In the case of “GCAGUCUUCUUAGCUAUAATT against 9430065N20Rik”, the z-score is reported as inactive: -1.92. In the case of CCAUGGAAUCUCCUAUACCTT against C4bp, the z-score is reported as inactive: 0.044. In the case of GCACUUAACAGAAUGAAUUTT against Alg2, the z-score is reported as inactive: 0.163. With “GCGGAUAUGAAGGACAUGCTT against 4933433P14Rik” the z-score was inactive: 0.287. For GGAGAAAUGUUGUUGUCUUTT against Kcng3, the z-score was inactive: -0.837. For “GGCAUUGAUCACUGACAGCTT against 9530077C05Rik”, the z-score was inactive: 0.686. In the case of CGUUUUACCACCGUGUGCUTT against Gfra1, the z-score is reported as inactive: 0.4. In the case of GGCUUGACUCCAAGACUGUTT against Mtch2, the z-score is reported as inactive: -0.0367. In the case of CGAGUGUUAGAUGCUAAAATT against Lamc2, the z-score is reported as inactive: 0.221. For CCGAAUGAUCACUCAAACUTT against Rbms1, the z-score was inactive: 2.36. In the case of GGCACUGUUCUCAUCUGUGTT against Olfr736, the z-score is reported as inactive: -0.252. With “GGCAAAGCAACUUUAUGAATT against 1100001A21Rik” the z-score was inactive: -0.499. In the case of GGCCUGCACGAAUGAGUUUTT against Ube3a, the z-score is reported as inactive: 1.26. With “GGAUCAAGGAGGAUUUCAATT against 5430420C16Rik” the z-score was inactive: -1.36. With GCUAGUGCUUAUUACGAUUTT against Fut4 the z-score was inactive: -0.0897. With CCAUCUUGGGUUCUGGUCATT against BC057627 the z-score was active: -0.312. With GGAACAUGGCACUUUCGUGTT against Pcdh10 the z-score was inactive: 0.756. In the case of CGGGCAUAAAGGUUACAUATT against Hspa4, the z-score is reported as inactive: 0.203. In the case of “GGAGUUUAUAACACAUAGGTT against 5930437A14Rik”, the z-score is reported as inactive: 1.27. With GCGUGAGAUACCAUAUUAUTT against Bank1 the z-score was inactive: -0.779. For GGUAUCAAAACAACAGUCCTT against Upk1b, the z-score was inactive: 0.127. With GGACAAUUCUAUCAAGUGGTT against Fcrl3 the z-score was inactive: 0.602. With “GGAGAAAAGUACCAAGAUGTT against 1810023F06Rik” the z-score was inactive: 2.44. With GGAGCUGUUUAUGUACUUUTT against BC034753 the z-score was inactive: -0.33. For “CCAGAUGUUACGAAUGAAATT against 2700094F01Rik”, the z-score was inactive: -1.65. In the case of “GGCACACACAAAGUAUUUCTT against 1300014I06Rik”, the z-score is reported as inactive: -0.147. In the case of GGUACUUACAGGUUGUCAUTT against Mageb1, the z-score is reported as inactive: 0.191. For GGAAGGCAAAUCAAAAUCCTT against Zfp609, the z-score was inactive: 0.914. For GGCGUAUUUUCCAACAGAGTT against Nxf3, the z-score was inactive: -0.581. For CCUGAACACAAGUGCUGGUTT against Dcir2, the z-score was inactive: 1.65. With “GGUUAAAAACAACUGAAAGTT against 9630028B13Rik” the z-score was inactive: -0.0837. With GGUGUACUUUUUCCUAUUUTT against Olfr352 the z-score was inactive: -1.62. In the case of GCUAGAACAGCAAAAAAAATT against Scgb3a1, the z-score is reported as inactive: 0.00969. For CCUUCAACACCACGAAUCUTT against Npdc1, the z-score was inactive: 0.838. For “GGCGUGCGAUAACACGCAATT against 2810046C01Rik”, the z-score was inactive: 0.361. For GGUCAAGUAUCAUUUUUGCTT against Negr1, the z-score was inactive: 0.268. In the case of GGUGAUCACUAACCUACUATT against AI427100, the z-score is reported as inactive: -0.505. For GGCAAGAAACAGUCAUAAGTT against Eps8l3, the z-score was inactive: -0.888. For CCUUACACUAAGAAAAAGGTT against Rad50, the z-score was inactive: -0.367. In the case of “GGGAAUCAUGAUAUGUUUCTT against 4432406C05Rik”, the z-score is reported as inactive: 1.12. With CCAGAUCCCAUAGCAACCATT against Bpnt1 the z-score was inactive: -0.21. With “GCUUAAAACAGACCAUUUUTT against 1700013G20Rik” the z-score was inactive: 0.824. In the case of GGGCAAUUGCUAUAUCUUATT against Cldn2, the z-score is reported as inactive: -0.637. In the case of GCUACAAGAAAUCUUGAUGTT against Tm4sf8, the z-score is reported as inactive: -0.0884. For GGAAGCGGGAGAUAGAGGATT against Xpo6, the z-score was inactive: 0.538. In the case of “GCUGGUACUGACGAAAUGGTT against 6330442E02Rik”, the z-score is reported as inactive: -0.46. In the case of “GCGUGUAAGGUCUUCAUCUTT against C130037N17Rik”, the z-score is reported as inactive: 2.85. In the case of “GGCUGCAUCCAAAACAGAATT against 2810457I06Rik”, the z-score is reported as inactive: 0.756. In the case of GGAUUAAAUCCGAAAAGCUTT against BC003277, the z-score is reported as inactive: -0.766. For “CGACGCAUUGAGGCAAUCUTT against 2310057J16Rik”, the z-score was inactive: 0.982. For CCGAUAAGUAUUAUGGUGCTT against Fh1, the z-score was inactive: -0.566. In the case of “GGAACUUAUGGACAGUUCATT against A930016D02Rik”, the z-score is reported as inactive: -0.345. For GGGCACAAUUCAAAACUUATT against Pgm1, the z-score was inactive: 0.0163. For GGAUAGGAUGUAAAGAUCATT against Atp6v0c, the z-score was inactive: -1.07. In the case of GGAUCAUCUCCUCCAUUCUTT against Olfr393, the z-score is reported as inactive: -0.521. For GGGUGUUGAAAGACUUUUATT against Tnks, the z-score was inactive: 0.127. For CCAAUCUCCAGUUCAACAATT against Adprtl2, the z-score was inactive: -0.0253. In the case of GGUAGAGGACCGCUUCUAUTT against Spa17, the z-score is reported as inactive: -1.4. In the case of GGAGAGCAGACAAAAAUGATT against Efcbp1, the z-score is reported as inactive: 0.688. For GGGUACACAAGAUGGACUGTT against Jun, the z-score was inactive: -1.55. In the case of GGGUGUGAGGGAUUUCAUCTT against Ndufa2, the z-score is reported as inactive: -0.979. For GGCAUUCGAGGAGACUCAUTT against AI415282, the z-score was inactive: -1.13. For “GGUCUCACUGCUAAUAAAGTT against D730039F16Rik”, the z-score was inactive: -0.353. In the case of CCGCCAAGAUUCUGAACAUTT against Ifitm6, the z-score is reported as inactive: -1.05. In the case of CCUACGAGUUUUGCAUUUATT against Mcart1, the z-score is reported as inactive: -1.83.
